# The list shows a part of the results.
# Experiments:
# Experiment in all cases: glycan array binding signal (z-score within array); higher = stronger binding
# Settings in all cases: glycan notation: IUPAC condensed, linker removed
# [1] = target: Gal(b1-3)GlcNAc(b1-2)Man(a1-3)[Gal(b1-3)GlcNAc(b1-2)Man(a1-6)]Man(b1-4)GlcNAc(b1-4)GlcNAc
# How it was run: (§1)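 From the Consortium for Functional Glycomics database, 3228 arrays were curated, keeping only those whose protein sequence was available. Binding is given as a within-array Z-score averaged across arrays sharing a protein sequence and across linkers. Negative Z-scores can be read as non-binding.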
# [2] = target: Gal(b1-3)GlcNAc(b1-2)Man(a1-3)[Gal(b1-3)GlcNAc(b1-2)Man(a1-6)]Man(b1-4)GlcNAc(b1-4)[Fuc(a1-6)]GlcNAc
# How it was run: as §1
# [3] = target: Gal(b1-3)GlcNAc(b1-2)Man(a1-3)[GlcNAc(b1-4)][Gal(b1-3)GlcNAc(b1-2)Man(a1-6)]Man(b1-4)GlcNAc(b1-4)GlcNAc
# How it was run: as §1
# [4] = target: Gal(b1-3)GlcNAc(b1-2)[Gal(b1-3)GlcNAc(b1-6)]Man(a1-6)[Gal(b1-3)GlcNAc(b1-2)Man(a1-3)]Man(b1-4)GlcNAc(b1-4)GlcNAc
# How it was run: as §1
# [5] = target: Gal(b1-3)GlcNAc(b1-3)Gal(b1-3)GlcNAc
# How it was run: as §1
# [6] = target: Gal(b1-3)GlcNAc(b1-3)Gal(b1-4)Glc
# How it was run: as §1
# [7] = target: Gal(b1-3)GlcNAc(b1-3)Gal(b1-4)GlcNAc
# How it was run: as §1
# [8] = target: Gal(b1-3)GlcNAc(b1-3)Gal(b1-4)GlcNAc(b1-2)Man(a1-3)[Gal(b1-3)GlcNAc(b1-3)Gal(b1-4)GlcNAc(b1-2)Man(a1-6)]Man(b1-4)GlcNAc(b1-4)GlcNAc
# How it was run: as §1
# [9] = target: Gal(b1-3)GlcNAc(b1-3)Gal(b1-4)GlcNAc(b1-2)[Gal(b1-3)GlcNAc(b1-3)Gal(b1-4)GlcNAc(b1-6)]Man(a1-6)[Gal(b1-3)GlcNAc(b1-3)Gal(b1-4)GlcNAc(b1-2)Man(a1-3)]Man(b1-4)GlcNAc(b1-4)[Fuc(a1-6)]GlcNAc
# How it was run: as §1
# [10] = target: Gal(b1-3)GlcNAc(b1-3)Gal(b1-4)GlcNAc(b1-3)Gal(b1-4)GlcNAc(b1-2)[Gal(b1-3)GlcNAc(b1-3)Gal(b1-4)GlcNAc(b1-3)Gal(b1-4)GlcNAc(b1-6)]Man(a1-6)[Gal(b1-3)GlcNAc(b1-3)Gal(b1-4)GlcNAc(b1-3)Gal(b1-4)GlcNAc(b1-2)Man(a1-3)]Man(b1-4)GlcNAc(b1-4)[Fuc(a1-6)]GlcNAc
# How it was run: as §1
# [11] = target: Gal(b1-3)GlcNAc(b1-3)Gal(b1-4)GlcNAc(b1-6)[Gal(b1-3)GlcNAc(b1-3)]Gal(b1-4)Glc
# How it was run: as §1
# [12] = target: Gal(b1-3)GlcNAc(b1-3)Gal(b1-4)[Fuc(a1-3)]GlcNAc
# How it was run: as §1
# [13] = target: Gal(b1-3)GlcNAc(b1-3)Gal(b1-4)[Fuc(a1-3)]GlcNAc(b1-6)[Gal(b1-3)GlcNAc(b1-3)]Gal(b1-4)Glc
# How it was run: as §1
# [14] = target: Gal(b1-3)GlcNAc(b1-3)GalNAc
# How it was run: as §1
# [15] = target: Gal(b1-3)GlcNAc(b1-6)Gal(b1-4)GlcNAc
# How it was run: as §1
# [16] = target: Gal(b1-3)GlcNAc(b1-6)GalNAc
# How it was run: as §1
# [17] = target: Gal(b1-3)GlcNAc(b1-6)[Gal(b1-3)]GalNAc
# How it was run: as §1
# Gal(b1-3)GlcNAc6S = target: Gal(b1-3)GlcNAc6S
# How it was run: as §1
# [18] = target: Gal(b1-3)[Fuc(a1-4)]GlcNAc
# How it was run: as §1
# [19] = target: Gal(b1-3)[Fuc(a1-4)]GlcNAc(b1-2)Man
# How it was run: as §1
# [20] = target: Gal(b1-3)[Fuc(a1-4)]GlcNAc(b1-2)Man(a1-3)[Gal(b1-3)[Fuc(a1-4)]GlcNAc(b1-2)Man(a1-6)]Man(b1-4)GlcNAc(b1-4)[Fuc(a1-6)]GlcNAc
# How it was run: as §1
# [21] = target: Gal(b1-3)[Fuc(a1-4)]GlcNAc(b1-3)Gal(b1-3)[Fuc(a1-4)]GlcNAc
# How it was run: as §1
# [22] = target: Gal(b1-3)[Fuc(a1-4)]GlcNAc(b1-3)Gal(b1-4)[Fuc(a1-3)]GlcNAc
# How it was run: as §1
# [23] = target: Gal(b1-3)[Fuc(a1-4)]GlcNAc(b1-6)GalNAc
# How it was run: as §1
# [24] = target: Gal(b1-3)[GlcNAc(b1-6)]GalNAc
# How it was run: as §1
# [25] = target: Gal(b1-3)[Neu5Ac(a2-6)]GalNAc
# How it was run: as §1
# [26] = target: Gal(b1-3)[Neu5Ac(a2-6)]GlcNAc(b1-4)Gal(b1-4)Glc
# How it was run: as §1
# [27] = target: Gal(b1-3)[Neu5Ac(b2-6)]GalNAc
# How it was run: as §1
# Gal(b1-4)Gal = target: Gal(b1-4)Gal
# How it was run: as §1
# [28] = target: Gal(b1-4)GalNAc(a1-3)[Fuc(a1-2)]Gal(b1-4)GlcNAc
# How it was run: as §1
# [29] = target: Gal(b1-4)GalNAc(b1-3)[Fuc(a1-2)]Gal(b1-4)GlcNAc
# How it was run: as §1
# Gal(b1-4)Glc = target: Gal(b1-4)Glc
# How it was run: as §1
# Gal(b1-4)Glc6S = target: Gal(b1-4)Glc6S
# How it was run: as §1
# Gal(b1-4)GlcNAc = target: Gal(b1-4)GlcNAc
# How it was run: as §1
# [30] = target: Gal(b1-4)GlcNAc(a1-6)Gal(b1-4)GlcNAc
# How it was run: as §1
# Gal(b1-4)GlcNAc(b1-2)Man = target: Gal(b1-4)GlcNAc(b1-2)Man
# How it was run: as §1
# [31] = target: Gal(b1-4)GlcNAc(b1-2)Man(a1-3)Man(b1-4)GlcNAc(b1-4)GlcNAc
# How it was run: as §1
# [32] = target: Gal(b1-4)GlcNAc(b1-2)Man(a1-3)[Gal(b1-4)GlcNAc(b1-2)Man(a1-6)]Man(b1-4)GlcNAc(b1-4)GlcNAc
# How it was run: as §1
# [33] = target: Gal(b1-4)GlcNAc(b1-2)Man(a1-3)[Gal(b1-4)GlcNAc(b1-2)Man(a1-6)]Man(b1-4)GlcNAc(b1-4)[Fuc(a1-6)]GlcNAc
# How it was run: as §1
# [34] = target: Gal(b1-4)GlcNAc(b1-2)Man(a1-3)[Gal(b1-4)GlcNAc(b1-2)Man(a1-6)][Gal(b1-4)GlcNAc(b1-4)]Man(b1-4)GlcNAc(b1-4)[Fuc(a1-6)]GlcNAc
# How it was run: as §1
# [35] = target: Gal(b1-4)GlcNAc(b1-2)Man(a1-3)[Gal(b1-4)GlcNAc(b1-2)Man(a1-6)][GlcNAc(b1-4)]Man(b1-4)GlcNAc(b1-4)[Fuc(a1-6)]GlcNAc
# How it was run: as §1
# [36] = target: Gal(b1-4)GlcNAc(b1-2)Man(a1-3)[GlcNAc(b1-2)Man(a1-6)]Man(b1-4)GlcNAc(b1-4)GlcNAc
# How it was run: as §1
# [37] = target: Gal(b1-4)GlcNAc(b1-2)Man(a1-3)[GlcNAc(b1-4)][Gal(b1-4)GlcNAc(b1-2)Man(a1-6)]Man(b1-4)GlcNAc(b1-4)GlcNAc
# How it was run: as §1
# [38] = target: Gal(b1-4)GlcNAc(b1-2)Man(a1-3)[Man(a1-6)]Man(b1-4)GlcNAc(b1-4)GlcNAc
# How it was run: as §1
# [39] = target: Gal(b1-4)GlcNAc(b1-2)Man(a1-6)Man(b1-4)GlcNAc(b1-4)GlcNAc
# How it was run: as §1
binder,measurement,setting,value
"CD34 (Homo sapiens), P28906 (protein) MGSSHHHHHHSSGLVPRGSHMSTSLATSPTKPYTSSSPILSDIKAEIKCSGIREVKLTQGICLEQNKTSSCAEFKKDRGEGLARVLCGEEQADADAGAQVCSLLLAQSEVRPQCLLLVLANRTEISSKLQLMKKHQSDLKKLGILDFTEQDVASHQSYSQKT",glycan array binding signal (z-score),[1],1.38
same,glycan array binding signal (z-score),[2],0.315
same,glycan array binding signal (z-score),[3],0.118
same,glycan array binding signal (z-score),[4],0.384
same,glycan array binding signal (z-score),[5],-0.917
same,glycan array binding signal (z-score),[6],-0.144
same,glycan array binding signal (z-score),[7],-0.549
same,glycan array binding signal (z-score),[8],-0.544
same,glycan array binding signal (z-score),[9],0.913
same,glycan array binding signal (z-score),[10],-0.213
same,glycan array binding signal (z-score),[11],-0.461
same,glycan array binding signal (z-score),[12],0.169
same,glycan array binding signal (z-score),[13],-0.812
same,glycan array binding signal (z-score),[14],-0.777
same,glycan array binding signal (z-score),[15],-0.686
same,glycan array binding signal (z-score),[16],0.565
same,glycan array binding signal (z-score),[17],-0.247
same,glycan array binding signal (z-score),Gal(b1-3)GlcNAc6S,0.292
same,glycan array binding signal (z-score),[18],-0.182
same,glycan array binding signal (z-score),[19],0.136
same,glycan array binding signal (z-score),[20],-0.104
same,glycan array binding signal (z-score),[21],-1.06
same,glycan array binding signal (z-score),[22],-0.356
same,glycan array binding signal (z-score),[23],0.092
same,glycan array binding signal (z-score),[24],-0.939
same,glycan array binding signal (z-score),[25],-0.495
same,glycan array binding signal (z-score),[26],-0.373
same,glycan array binding signal (z-score),[27],-0.628
same,glycan array binding signal (z-score),Gal(b1-4)Gal,0.236
same,glycan array binding signal (z-score),[28],0.152
same,glycan array binding signal (z-score),[29],-0.791
same,glycan array binding signal (z-score),Gal(b1-4)Glc,-0.261
same,glycan array binding signal (z-score),Gal(b1-4)Glc6S,0.445
same,glycan array binding signal (z-score),Gal(b1-4)GlcNAc,0.128
same,glycan array binding signal (z-score),[30],0.103
same,glycan array binding signal (z-score),Gal(b1-4)GlcNAc(b1-2)Man,1.38
same,glycan array binding signal (z-score),[31],0.649
same,glycan array binding signal (z-score),[32],-0.847
same,glycan array binding signal (z-score),[33],-0.772
same,glycan array binding signal (z-score),[34],-1
same,glycan array binding signal (z-score),[35],-0.754
same,glycan array binding signal (z-score),[36],-1.28
same,glycan array binding signal (z-score),[37],-0.579
same,glycan array binding signal (z-score),[38],-0.73
same,glycan array binding signal (z-score),[39],0.031

# Quoted at random: 2 records from the list, in no set order.
binder,measurement,setting,value
"CD34 (Homo sapiens), P28906 (protein) MGSSHHHHHHSSGLVPRGSHMSTSLATSPTKPYTSSSPILSDIKAEIKCSGIREVKLTQGICLEQNKTSSCAEFKKDRGEGLARVLCGEEQADADAGAQVCSLLLAQSEVRPQCLLLVLANRTEISSKLQLMKKHQSDLKKLGILDFTEQDVASHQSYSQKT",glycan array binding signal (z-score),Gal(b1-4)Glc,-0.261
same,glycan array binding signal (z-score),[5],-0.917
